According to PubChem BioAssay AID248 (DTP/NCI, 2004):
The list does not hold the whole screen: it is rich in T/C values a quarter to a half above the control, in often repeated tests (any T/C) and in doses without a T/C. Other doses and runs of a compound stand elsewhere. T/C: endpoint of the treated group in % of that of the vehicle group. Some entries give survivors of the animals treated and no T/C: the source holds a T/C of zero for them, seemingly a mark for toxic or unscored doses. Some doses without a T/C left all or most animals alive at the check, yet need not have been tolerated: the source hardly ever lists a survival T/C far under the control, and the zero likely stands for such cases as well. Survivors were counted at the toxicity check, usually on the fifth day, unless a day is given; later deaths do not show. Schedule codes are those of the source, read here as Q, the interval in days (D) or hours (H), X, the number of doses. Some doses were run more than once; the values are given in rising order. Some schedule codes hold Z or #, which are not explained here. Some molecules as drawn cover several salts, stereoisomers or complexes of the source; a dose is that of the sample tested. Where survival is the endpoint, this PubChem deposit counts one and a half times the control or more as active, and values a quarter to a half above the control carry no call in these data; other NCI protocols may use other cut-offs. Some T/C values are followed by the survivors on the day toxicity was checked, most often the fifth; without a count, all were alive then.

Tested on: L1210 leukemia ip in BDF1 mice, survival T/C
Assay: NCI In Vivo Anticancer Drug Screen. Data for tumor model L1210 Leukemia (intraperitoneal) in B6D2F1 (BDF1) mice
Details: T/C endpoint: mean survival time, higher T/C = longer survival
[1] = dose: 50.0 mg/kg/injection, schedule: Q01DX001 (ip), vehicle: saline
[2] = dose: 67.0 mg/kg/injection, schedule: Q01DX001 (ip), vehicle: saline
[3] = dose: 100.0 mg/kg/injection, schedule: Q01DX001 (ip), vehicle: saline
[4] = dose: 100.0 mg/kg/injection, schedule: Q04DX003 (ip), vehicle: saline
[5] = dose: 200.0 mg/kg/injection, schedule: Q01DX001 (ip), vehicle: saline
[6] = dose: 200.0 mg/kg/injection, schedule: Q04DX003 (ip), vehicle: saline
[7] = dose: 400.0 mg/kg/injection, schedule: Q01DX001 (ip), vehicle: saline
[8] = dose: 400.0 mg/kg/injection, schedule: Q04DX003 (ip), vehicle: saline
[9] = dose: 400.0 mg/kg/injection, schedule: Q04DX003 (ip), vehicle: Klucel (hydroxypropylcellulose) (HPC)

CS(=O)(=O)OCCF
survivor count (dose: 10.0 mg/kg/injection, schedule: Q01DX009 (ip), vehicle: carboxymethylcellulose (CMC)): 4 of 6
survivor count (dose: 12.5 mg/kg/injection, schedule: Q04DX003 (ip), vehicle: saline with Tween-80): 2 of 6
survivor count (dose: 18.0 mg/kg/injection, schedule: Q01DX009 (ip), vehicle: saline): 0 of 6
T/C (dose: 18.0 mg/kg/injection, schedule: Q01DX015 (ip), vehicle: saline): 125 % of control [4 of 6 alive]
T/C (dose: 25.0 mg/kg/injection, schedule: Q01DX001 (ip), vehicle: saline): 131 % of control
survivor count (dose: 25.0 mg/kg/injection, schedule: Q01DX009 (ip), vehicle: acetone): 6 of 6
survivor count (dose: 25.0 mg/kg/injection, schedule: Q04DX003 (ip), vehicle: saline with Tween-80): 0 of 6
survivor count (dose: 27.0 mg/kg/injection, schedule: Q01DX009 (ip), vehicle: saline): 0 of 6
survivor count (dose: 36.0 mg/kg/injection, schedule: Q01DX009 (ip), vehicle: saline): 0 of 6
survivor count [1]: 2 of 4
survivor count (dose: 50.0 mg/kg/injection, schedule: Q01DX009 (ip), vehicle: acetone): 5 of 6
survivor count (dose: 50.0 mg/kg/injection, schedule: Q01DX015 (ip), vehicle: saline): 1 of 6 and 4 of 6
survivor count (dose: 50.0 mg/kg/injection, schedule: Q04DX003 (ip), vehicle: saline): 2 of 6
T/C [2]: 97 % of control [3 of 4 alive]
survivor count [2]: 2 of 4, 3 of 6, 4 of 4
T/C (dose: 100.0 mg/kg/injection, schedule: Q01DX001 (ip), vehicle: carboxymethylcellulose (CMC)): 130 % of control [5 of 6 alive]
T/C (dose: 100.0 mg/kg/injection, schedule: Q01DX001 (ip), vehicle: saline, evaluated on day 30): 109 % of control
survivor count [3]: 0 of 6, 1 of 4, 2 of 4, 3 of 6
T/C (dose: 100.0 mg/kg/injection, schedule: Q01DX001 (ip), vehicle: saline, run until all animals had died): 132 [3 of 4 alive] and 161 % of control [5 of 6 alive]
survivor count [4]: 2 of 6
T/C (dose: 150.0 mg/kg/injection, schedule: Q01DX001 (ip), vehicle: carboxymethylcellulose (CMC)): 133 % of control [4 of 6 alive]
T/C (dose: 150.0 mg/kg/injection, schedule: Q01DX001 (ip), vehicle: saline, evaluated on day 30): 147 % of control [4 of 6 alive]
survivor count (dose: 150.0 mg/kg/injection, schedule: Q01DX001 (ip), vehicle: saline): 0 of 4, 1 of 4, 3 of 4
T/C (dose: 150.0 mg/kg/injection, schedule: Q01DX001 (ip), vehicle: saline, run until all animals had died): 154 % of control [5 of 6 alive]
T/C [5]: 87 % of control [3 of 4 alive]
survivor count [5]: 0 of 6, 1 of 6, 1 of 4
survivor count [6]: 2 of 6
survivor count [7]: 1 of 6
survivor count [8]: 0 of 6

CCCCC(=O)NC1=C(Cl)C(=O)c2ccccc2C1=O
survivor count (dose: 300.0 mg/kg/injection, schedule: Q01DX001 (ip), vehicle: saline): 2 of 6

Cc1n[nH]c(=S)n1C
survivor count [8]: 0 of 6

CCCCCCCCCCCCCCCCNS(=O)(=O)c1ccc2sc(SC)nc2c1
survivor count (dose: 100.0 mg/kg/injection, schedule: Q04DX003 (ip), vehicle: saline with Tween-80): 6 of 6

CCCCCCCCCCCC(=O)[O][Sn]([CH2]C)([CH2]C)[O]C(=O)CCCCCCCCCCC
survivor count (dose: 35.0 mg/kg/injection, schedule: Q01DX009 (ip), vehicle: saline with Tween-80): 0 of 6
survivor count [1]: 3 of 6
survivor count (dose: 55.0 mg/kg/injection, schedule: Q04DX003 (ip), vehicle: acetone): 2 of 6
survivor count (dose: 80.0 mg/kg/injection, schedule: Q04DX003 (ip), vehicle: acetone): 0 of 6
survivor count [3]: 2 of 6
survivor count [5]: 0 of 6
survivor count [7]: 0 of 6

COc1ccc2c(c1OC)C13CCCCC1C(C2)[N+](C)(C)CC3 (stereo unspecified)
survivor count (dose: 100.0 mg/kg/injection, schedule: Q01DX009 (ip), vehicle: Klucel (hydroxypropylcellulose) (HPC)): 0 of 6
survivor count (dose: 200.0 mg/kg/injection, schedule: Q04DX003 (ip), vehicle: Klucel (hydroxypropylcellulose) (HPC)): 6 of 6
survivor count [9]: 6 of 6

CS(=O)(=O)CCN(N=O)C(=N)N[N+](=O)[O-]
T/C (dose: 17.7 mg/kg/injection, schedule: Q01DX Z (ip), vehicle: carboxymethylcellulose (CMC)): 135 % of control
T/C (dose: 26.6 mg/kg/injection, schedule: Q01DX Z (ip), vehicle: carboxymethylcellulose (CMC)): 147 % of control
T/C (dose: 30.0 mg/kg/injection, schedule: Q01DX Z (ip), vehicle: methylcellulose (MC)): 134 % of control
T/C (dose: 60.0 mg/kg/injection, schedule: Q01DX Z (ip), vehicle: methylcellulose (MC)): 132 % of control
T/C (dose: 90.0 mg/kg/injection, schedule: Q01DX Z (ip), vehicle: carboxymethylcellulose (CMC)): 137 % of control
T/C (dose: 90.0 mg/kg/injection, schedule: Q01DX Z (ip), vehicle: methylcellulose (MC)): 127 % of control
survivor count (dose: 135.0 mg/kg/injection, schedule: Q01DX Z (ip), vehicle: carboxymethylcellulose (CMC)): 2 of 6

FC(F)(F)c1ccc2c(c1)N(CCCN1CCN(CCOCCCl)CC1)c1ccccc1S2
survivor count (dose: 6.25 mg/kg/injection, schedule: Q01DX009 (ip), vehicle: saline): 6 of 6
survivor count (dose: 12.5 mg/kg/injection, schedule: Q01DX009 (ip), vehicle: saline): 6 of 6
survivor count (dose: 25.0 mg/kg/injection, schedule: Q01DX009 (ip), vehicle: saline): 6 of 6
survivor count (dose: 50.0 mg/kg/injection, schedule: Q01DX009 (ip), vehicle: saline): 5 of 6
survivor count [4]: 3 of 6

CCC1C(=O)CC(C(=O)O)C1C(=O)O (stereo unspecified)
survivor count (dose: 400.0 mg/kg/injection, schedule: Q04DX002 (ip), vehicle: saline with Tween-80): 3 of 3

CC1(C)COC(C)(C)C(=O)O1
survivor count [9]: 6 of 6

CC12CCC(C1)C(C)(C)/C2=N\N=C(N)N (stereo unspecified)
survivor count (dose: 1500.0 mg/kg/injection, schedule: Q01DX Z (oral), vehicle: saline): 1 of 6

Nc1ccc2cc(S(=O)(=O)O)cc(S(=O)(=O)O)c2c1 (tested in a mixture with another compound)
survivor count (dose: 115.0 mg/kg/injection, schedule: Q01DX Z (ip), vehicle: saline): 6 of 6

CC(C)C(NC(=O)OC(C)(C)C)C(=O)O (stereo unspecified)
T/C (dose: 25.0 mg/kg/injection, schedule: Q04DX003 (ip), vehicle: other): 125 % of control
survivor count [5]: 1 of 6
survivor count [7]: 0 of 6
survivor count (dose: 400.0 mg/kg/injection, schedule: Q04DX003 (ip), vehicle: other): 4 of 6 and 5 of 6

CCCCOCCC1CCNCC1
survivor count [4]: 1 of 6
survivor count [6]: 0 of 6
survivor count [8]: 0 of 6

Nc1nc2nc3c(nc2c(=O)[nH]1)C(=O)N(c1ccc(C(=O)O)cc1)C3
survivor count (dose: 100.0 mg/kg/injection, schedule: Q01DX009 (ip), vehicle: saline): 6 of 6
survivor count (dose: 200.0 mg/kg/injection, schedule: Q01DX009 (ip), vehicle: saline): 3 of 6
survivor count [7]: 2 of 3
survivor count (dose: 400.0 mg/kg/injection, schedule: Q01DX009 (ip), vehicle: saline): 0 of 6

FCCBr
survivor count (dose: 25.0 mg/kg/injection, schedule: Q01DX009 (ip), vehicle: water): 2 of 6
survivor count (dose: 50.0 mg/kg/injection, schedule: Q01DX009 (ip), vehicle: water): 0 of 6
survivor count (dose: 50.0 mg/kg/injection, schedule: Q04DX003 (ip), vehicle: water): 3 of 6
survivor count (dose: 100.0 mg/kg/injection, schedule: Q01DX009 (ip), vehicle: water): 0 of 6
survivor count (dose: 100.0 mg/kg/injection, schedule: Q04DX003 (ip), vehicle: water): 2 of 6
survivor count (dose: 200.0 mg/kg/injection, schedule: Q04DX003 (ip), vehicle: water): 3 of 6
survivor count (dose: 400.0 mg/kg/injection, schedule: Q04DX003 (ip), vehicle: water): 1 of 6
